The results in this text go back to PMC7862700.

The list shows a part of the results. Construct or isoform of the protein are uncertain.

The assay addresses T1, ETS1 (UniProt P14921).
T1 sequence: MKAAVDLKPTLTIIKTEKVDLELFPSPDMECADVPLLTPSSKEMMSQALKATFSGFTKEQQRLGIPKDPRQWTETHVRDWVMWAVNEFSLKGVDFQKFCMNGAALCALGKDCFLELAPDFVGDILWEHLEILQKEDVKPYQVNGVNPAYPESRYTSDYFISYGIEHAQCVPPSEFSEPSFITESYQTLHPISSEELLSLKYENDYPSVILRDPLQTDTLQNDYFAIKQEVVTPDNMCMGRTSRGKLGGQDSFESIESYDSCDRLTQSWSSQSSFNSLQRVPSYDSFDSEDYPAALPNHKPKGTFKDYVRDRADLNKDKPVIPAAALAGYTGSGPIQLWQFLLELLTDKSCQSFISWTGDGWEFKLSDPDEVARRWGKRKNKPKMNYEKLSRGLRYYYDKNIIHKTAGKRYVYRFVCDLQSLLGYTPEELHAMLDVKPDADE
The assay is described as follows: DAPPL (digital affinity profiling via proximity ligation, sequencing). The settings on record: 10 mM Tris-HCl pH 7.5, 50 mM NaCl, 1 mM DTT, 4% glycerol, room temperature, 30 min; GST-TFs on glutathione beads, 16-mer random dsDNA library, 0.1% …; high values mean tight binding; double strand, one strand shown; scale: fold enrichment (6-mer frequency, TF over GST control).
The sequence AACTTT returned a binding signal of 1.22. Turning to TATATT, the binding signal was determined as 1.47. Then ATTATA, with 1.28. Then TGGTAA, with 1.25; and ACCGCA, with 1.1; and CCCTCA, with 1.16. Then AATAAA, with 1.27.

In turn, CTAACA had a binding signal of 1.32. Take ATGCAG: the binding signal came out at 1.14. Then GTTTGT, with 1.01; and CACTAC, with 1.3; and ACCTCT, with 1.43. Then GATCCA, with 1.03. Then ACCGGC, with 1.07. For the sequence CGTCTT, the binding signal turned out to be 1.45. Then CTATCC, with 1.47; and CTCGCA, with 1.35.

AACGCA returned a binding signal of 1.05.

Sequence CTTCCG registered a binding signal of 7.34. Then TGTACG, with 1.22. Then TGGGTT, with 1.15; and TGTCTG, with 1.05; and CGTCAA, with 1.08. Then ATATTG, with 1.31; and ATACTT, with 1.65. Regarding TGATCA, the binding signal turned out to be 1.03.

In the case of TATGAG, the binding signal was determined as 0.966. Then CTCGTC, with 1.43.

On to GTCCTG, for which the binding signal was determined as 1.09. Turning to ATCCAT, the binding signal came out at 1.14. In turn, CCTGTA showed a binding signal of 1.35. Then AATCCA, with 1.08; and CTCCGA, with 1.34; and AACGAT, with 1.29.

For CTTGCT, the binding signal was found to be 1.29. AAGCTT yielded a binding signal of 1.24. The sequence TGCTTA registered a binding signal of 1.11. Then CTGCGT, with 1.14. Then ATTCCT, with 1.37; and TGCGTT, with 1.1.
